# From patent US20200317791A1
# Results are given in words; binding and its absence hold for the method and conditions named. For some of these results: A result given as binding can be weak or reduced; the word gives no strength.
# B1: CW6B230 (antibody, V domains shown)
# VH: QVQLQESGPGLVKPSETLSLTCTVSGNSISNYYWSWIRQPAGKGLEWIGRIYITGNTNYNPSLKSRVTMSLDTSKNQFSLKLSSVTAADTAVYYCARLSGIDAFDIWGQGTMVTVSS
# VL: DIQMTQSPSTLSASVGDRVTFTCQASQDITKYLNWYQQKPGKAPKLLIYDASNLETGVPSRFSGSGSGTDFTFTISSLQPEDFATYYCQQYDDLPITFGQGTRLEIK
# Tests used:
# Cw10_C*03:04 (human) = assay: LABScreen beads, 10 µg/ml antibody
# Cw16_C*16:01 (human) = assay: LABScreen beads, 10 µg/ml antibody
# Cw4_C*04:01 (human) = assay: LABScreen beads, 10 µg/ml antibody
# B8,Bw6_B*08:01 (human) = assay: LABScreen beads, 10 µg/ml antibody
# B58,Bw4_B*58:01 (human) = assay: LABScreen beads, 10 µg/ml antibody
# [1] = molecular target: Cw7_C*07:02 (human), C*07:0; assay: LABScreen beads, 10 µg/ml antibody
# B57,Bw4_B*57:03 (human) = assay: LABScreen beads, 10 µg/ml antibody
# Cw2_C*02:02 (human) = assay: LABScreen beads, 10 µg/ml antibody
# B75,Bw6_B*15:11 (human) = assay: LABScreen beads, 10 µg/ml antibody
# Cw12_C*12:03 (human) = assay: LABScreen beads, 10 µg/ml antibody
# Cw9_C*03:03 (human) = assay: LABScreen beads, 10 µg/ml antibody
# B65,Bw6_B*14:02 (human) = assay: LABScreen beads, 10 µg/ml antibody
# Cw5_C*05:01 (human) = assay: LABScreen beads, 10 µg/ml antibody
# B61,Bw6_B*40:06 (human) = assay: LABScreen beads, 10 µg/ml antibody
# Cw10_C*03:02 (human) = assay: LABScreen beads, 10 µg/ml antibody
# Cw15_C*15:02 (human) = assay: LABScreen beads, 10 µg/ml antibody
# Cw18_C*18:02 (human) = assay: LABScreen beads, 10 µg/ml antibody
# Cw17_C*17:01 (human) = assay: LABScreen beads, 10 µg/ml antibody
# B63,Bw4_B*15:16 (human) = assay: LABScreen beads, 10 µg/ml antibody
# Cw8_C*08:01 (human) = assay: LABScreen beads, 10 µg/ml antibody
# Cw1_C*01:02 (human) = assay: LABScreen beads, 10 µg/ml antibody
# Cw14_C*14:02 (human) = assay: LABScreen beads, 10 µg/ml antibody
# B64,Bw6_B*14:01 (human) = assay: LABScreen beads, 10 µg/ml antibody
# B61,Bw6_B*40:02 (human) = assay: LABScreen beads
# B72,Bw6_B*15:03 (human) = assay: LABScreen beads
# B62,Bw6_B*15:01 (human) = assay: LABScreen beads
# B18,Bw6_B*18:01 (human) = assay: LABScreen beads
# B52,Bw4_B*52:01 (human) = assay: LABScreen beads
# B42,Bw6_B*42:01 (human) = assay: LABScreen beads
# B44,Bw4_B*44:03 (human) = assay: LABScreen beads
# B13,Bw4_B*13:01 (human) = assay: LABScreen beads
# B76,Bw6_B*15:12 (human) = assay: LABScreen beads
# B60,Bw6_B*40:01 (human) = assay: LABScreen beads
# B13,Bw4_B*13:02 (human) = assay: LABScreen beads
# B51,Bw4_B*51:02 (human) = assay: LABScreen beads
# B48,Bw6_B*48:01 (human) = assay: LABScreen beads
# B38,Bw4_B*38:01 (human) = assay: LABScreen beads
# B49,Bw4_B*49:01 (human) = assay: LABScreen beads
# B71,Bw6_B*15:10 (human) = assay: LABScreen beads
# B56,Bw6_B*56:01 (human) = assay: LABScreen beads
# B59,Bw4_B*59:01 (human) = assay: LABScreen beads
# B44,Bw4_B*44:02 (human) = assay: LABScreen beads
# B51,Bw4_B*51:01 (human) = assay: LABScreen beads
# B47,Bw4_B*47:01 (human) = assay: LABScreen beads
# B53,Bw4_B*53:01 (human) = assay: LABScreen beads
# B27,Bw6_B*27:08 (human) = assay: LABScreen beads
# B77,Bw4_B*15:13 (human) = assay: LABScreen beads
# B75,Bw6_B*15:02 (human) = assay: LABScreen beads
# B67,Bw6_B*67:01 (human) = assay: LABScreen beads
# B81,Bw6_B*81:01 (human) = assay: LABScreen beads
# B45,Bw6_B*45:01 (human) = assay: LABScreen beads
# B82,Bw6_B*82:01 (human) = assay: LABScreen beads
# B39,Bw6_B*39:01 (human) = assay: LABScreen beads
# B55,Bw6_B*55:01 (human) = assay: LABScreen beads
# B50,Bw6_B*50:01 (human) = assay: LABScreen beads
binder,measurement,setting,value
B1,binding,Cw10_C*03:04 (human),binds
same,binding,Cw16_C*16:01 (human),binds
same,binding,Cw4_C*04:01 (human),binds
same,binding,"B8,Bw6_B*08:01 (human)",binds
same,binding,"B58,Bw4_B*58:01 (human)",binds
same,binding,[1],binds
same,binding,"B57,Bw4_B*57:03 (human)",binds
same,binding,Cw2_C*02:02 (human),binds
same,binding,"B75,Bw6_B*15:11 (human)",binds
same,binding,Cw12_C*12:03 (human),binds
same,binding,Cw9_C*03:03 (human),binds
same,binding,"B65,Bw6_B*14:02 (human)",binds
same,binding,Cw5_C*05:01 (human),binds
same,binding,"B61,Bw6_B*40:06 (human)",binds
same,binding,Cw10_C*03:02 (human),binds
same,binding,Cw15_C*15:02 (human),binds
same,binding,Cw18_C*18:02 (human),binds
same,binding,Cw17_C*17:01 (human),binds
same,binding,"B63,Bw4_B*15:16 (human)",binds
same,binding,Cw8_C*08:01 (human),binds
same,binding,Cw1_C*01:02 (human),binds
same,binding,Cw14_C*14:02 (human),binds
same,binding,"B64,Bw6_B*14:01 (human)",binds
same,binding,"B61,Bw6_B*40:02 (human)",no binding (tested: 10 µg/ml)
same,binding,"B72,Bw6_B*15:03 (human)",no binding (tested: 10 µg/ml)
same,binding,"B62,Bw6_B*15:01 (human)",no binding (tested: 10 µg/ml)
same,binding,"B18,Bw6_B*18:01 (human)",no binding (tested: 10 µg/ml)
same,binding,"B52,Bw4_B*52:01 (human)",no binding (tested: 10 µg/ml)
same,binding,"B42,Bw6_B*42:01 (human)",no binding (tested: 10 µg/ml)
same,binding,"B44,Bw4_B*44:03 (human)",no binding (tested: 10 µg/ml)
same,binding,"B13,Bw4_B*13:01 (human)",no binding (tested: 10 µg/ml)
same,binding,"B76,Bw6_B*15:12 (human)",no binding (tested: 10 µg/ml)
same,binding,"B60,Bw6_B*40:01 (human)",no binding (tested: 10 µg/ml)
same,binding,"B13,Bw4_B*13:02 (human)",no binding (tested: 10 µg/ml)
same,binding,"B51,Bw4_B*51:02 (human)",no binding (tested: 10 µg/ml)
same,binding,"B48,Bw6_B*48:01 (human)",no binding (tested: 10 µg/ml)
same,binding,"B38,Bw4_B*38:01 (human)",no binding (tested: 10 µg/ml)
same,binding,"B49,Bw4_B*49:01 (human)",no binding (tested: 10 µg/ml)
same,binding,"B71,Bw6_B*15:10 (human)",no binding (tested: 10 µg/ml)
same,binding,"B56,Bw6_B*56:01 (human)",no binding (tested: 10 µg/ml)
same,binding,"B59,Bw4_B*59:01 (human)",no binding (tested: 10 µg/ml)
same,binding,"B44,Bw4_B*44:02 (human)",no binding (tested: 10 µg/ml)
same,binding,"B51,Bw4_B*51:01 (human)",no binding (tested: 10 µg/ml)
same,binding,"B47,Bw4_B*47:01 (human)",no binding (tested: 10 µg/ml)
same,binding,"B53,Bw4_B*53:01 (human)",no binding (tested: 10 µg/ml)
same,binding,"B27,Bw6_B*27:08 (human)",no binding (tested: 10 µg/ml)
same,binding,"B77,Bw4_B*15:13 (human)",no binding (tested: 10 µg/ml)
same,binding,"B75,Bw6_B*15:02 (human)",no binding (tested: 10 µg/ml)
same,binding,"B67,Bw6_B*67:01 (human)",no binding (tested: 10 µg/ml)
same,binding,"B81,Bw6_B*81:01 (human)",no binding (tested: 10 µg/ml)
same,binding,"B45,Bw6_B*45:01 (human)",no binding (tested: 10 µg/ml)
same,binding,"B82,Bw6_B*82:01 (human)",no binding (tested: 10 µg/ml)
same,binding,"B39,Bw6_B*39:01 (human)",no binding (tested: 10 µg/ml)
same,binding,"B55,Bw6_B*55:01 (human)",no binding (tested: 10 µg/ml)
same,binding,"B50,Bw6_B*50:01 (human)",no binding (tested: 10 µg/ml)
